Experimental data from the supplement of paper PMC12823440, “Inhibitors supercharge kinase turnover through native proteolytic circuits” (Nature, 2025).
Structures can show the parent of a compound that is named as a salt. This is one part of the list. Hit calls seldom repeat between salt and free forms of one compound.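 Kinases, fused to nanoluciferase, were expressed in K562 cells; luminescence was measured every 4 h from 2 to 18 h as percent of control (DMSO = 100%, positive control = 0%). A time point is decreased if signal falls significantly (2 sigma). Hits were called by the authors by a rule that is not shown; the count of time points alone does not decide it.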

target: EGFR_L861Q (UniProt P00533); experiment: kinase-Nluc reporter destabilization hit call (1 = scored as downregulated) (binary); higher = compound decreases kinase abundance; settings: K562; 2-18 h

kinase-Nluc reporter destabilization hit call, inactive:
CC#CC(=O)N[C@H]1CCCN(c2c(F)cc(C(N)=O)c3[nH]c(C)c(C)c23)C1 [Branebrutinib] (10 µM) 0
O=C1NC(=NCc2cccs2)S/C1=C\c1ccc2ncccc2c1 (10 µM) 0
Cn1c(=O)n(-c2ccc(C(C)(C)C#N)cc2)c2c3cc(-c4cnc5ccccc5c4)ccc3ncc21 [Dactolisib (Tosylate)] (10 µM) 0
COC(=O)c1ccc2c(C(=Nc3ccc(N(C)C(=O)CN4CCN(C)CC4)cc3)c3ccccc3)c(O)[nH]c2c1 [Nintedanib] (2.5 µM) 0
COc1cc2ncnc(Nc3ccc(O)cc3)c2cc1OC (10 µM) 0
O=C(c1ccc(-c2ccc(Cl)cc2)o1)N(Cc1ccccn1)c1ccc(N2CCNCC2)cc1 [MK2-IN-1 (hydrochloride)] (10 µM) 0
CN1CCN(S(=O)(=O)c2ccc(-c3cnc(N)c(C(=O)Nc4cccnc4)n3)cc2)CC1 (10 µM) 0
CN(C)C[C@@H]1CCn2cc(c3ccccc32)C2=C(C(=O)NC2=O)c2cn(c3ccccc23)CCO1 [Ruboxistaurin (hydrochloride)] (10 µM) 0
COc1ccc(Oc2cc(NCCC(F)(F)F)c3ncc(-c4ccc(C(=O)NC5CC5)c(C)c4)n3n2)c(F)c1F (2.5 µM) 0
CCCCNc1ncc(-c2ccc(CN3CCOCC3)cn2)c(NC2CCC(O)CC2)n1 (stereo not given) (10 µM) 0
O=C(Nc1cc(C(F)(F)F)ccc1N1CCN(Cc2ccccn2)CC1)c1ccc(-c2ccncc2)o1 (10 µM) 0
CC(C)(/C=C(\C#N)C(=O)N1CCC[C@@H](n2nc(-c3ccc(Oc4ccccc4)cc3F)c3c(N)ncnc32)C1)N1CCN(C2COC2)CC1 (2.5 µM) 0
CNC(=O)c1cccc2cc(Oc3ccnc4cc(OCC5(N)CC5)c(OC)cc34)ccc12 [Lucitanib] (10 µM) 0
COc1cc(F)cc([C@@H](CO)NC(=O)[C@@H](C)N2Cc3ccc(-c4nc(NC5CCOCC5)ncc4Cl)cc3C2=O)c1 [ERK1/2 inhibitor 2] (10 µM) 0
O=c1cc(-c2ccccc2)oc2c(O)c(O)ccc12 [7,8-Dihydroxyflavone] (10 µM) 0
C=CC(=O)N1CC[C@H](n2nc(C#Cc3cc(OC)cc(OC)c3)c3c(N)ncnc32)C1 [Futibatinib] (10 µM) 0
O=C1Nc2ccccc2/C1=C/c1ccc(F)cc1 (10 µM) 0
CN(C)Cc1ccc(-c2cnn3c(-c4cccc(NC(=O)c5cccc(C(F)(F)F)c5)c4)ccnc23)cc1 (2.5 µM) 0
Cc1c[nH]c(/C=C2\C(=O)Nc3ccccc32)c1CCC(=O)O (10 µM) 0
CC(C)c1ccc2oc3nc(N)c(C(=O)O)cc3c(=O)c2c1 [Amlexanox] (10 µM) 0
NS(=O)(=O)c1ccc(Nc2nc(OCC3CCCCC3)c3[nH]cnc3n2)cc1 (10 µM) 0
Cn1nc(C(C)(C)C)cc1NC(=O)Nc1ccc(Oc2ccncc2)cc1 (10 µM) 0
COc1ccc(F)c(F)c1C(=O)c1cnc(NC2CCN(S(C)(=O)=O)CC2)nc1N (2.5 µM) 0
COc1cc(C(=O)NC2CCN(C)CC2)ccc1Nc1ncc2c(n1)N(C1CCCC1)CC(F)(F)C(=O)N2C (10 µM) 0
CCN1C(=O)N(c2c(F)c(OC)cc(OC)c2F)Cc2cnc3[nH]c(CN4CCOCC4)cc3c21 [Pemigatinib] (10 µM) 0
COc1cc(Oc2ccnc3cc(OC)c(OC)cc23)ccc1NC(=O)NC(C)c1nccs1 (stereo not given) (2.5 µM) 0
C=CC(=O)N1C[C@H](Nc2ncnc3[nH]ccc23)CC[C@@H]1C [Ritlecitinib] (10 µM) 0
CC(C)(C)S(=O)(=O)c1cc2c(Nc3ccc4scnc4c3)ncnc2cc1OCCO (2.5 µM) 0
O=C(NOC[C@H](O)CO)c1ccc(F)c(F)c1Nc1ccc(I)cc1F (2.5 µM) 0
Cc1cccc([C@@H](CO)NC(=O)[C@@H](C)N2Cc3ccc(-c4nc(NC5CCOCC5)ncc4Cl)cc3C2=O)c1 [ERK1/2 inhibitor 1] (10 µM) 0

Ordered by length of the SMILES (descending): some entries from above
kinase-Nluc reporter destabilization hit call, inactive:
COC(=O)c1ccc2c(C(=Nc3ccc(N(C)C(=O)CN4CCN(C)CC4)cc3)c3ccccc3)c(O)[nH]c2c1 [Nintedanib] (2.5 µM) 0
CN(C)Cc1ccc(-c2cnn3c(-c4cccc(NC(=O)c5cccc(C(F)(F)F)c5)c4)ccnc23)cc1 (2.5 µM) 0
Cn1c(=O)n(-c2ccc(C(C)(C)C#N)cc2)c2c3cc(-c4cnc5ccccc5c4)ccc3ncc21 [Dactolisib (Tosylate)] (10 µM) 0
CNC(=O)c1cccc2cc(Oc3ccnc4cc(OCC5(N)CC5)c(OC)cc34)ccc12 [Lucitanib] (10 µM) 0
COc1cc(Oc2ccnc3cc(OC)c(OC)cc23)ccc1NC(=O)NC(C)c1nccs1 (stereo not given) (2.5 µM) 0
CCCCNc1ncc(-c2ccc(CN3CCOCC3)cn2)c(NC2CCC(O)CC2)n1 (stereo not given) (10 µM) 0
